Measured values taken from PMC7481787.
No constants are given. Whether binding was seen depends on the method and setting. In cells and extracts the contact can be indirect. Some entries that bind do so weakly or less than the wild type.

Sequences of proteins named here, by UniProt entry; tags and fusion partners are left off.
UniProt Q62318: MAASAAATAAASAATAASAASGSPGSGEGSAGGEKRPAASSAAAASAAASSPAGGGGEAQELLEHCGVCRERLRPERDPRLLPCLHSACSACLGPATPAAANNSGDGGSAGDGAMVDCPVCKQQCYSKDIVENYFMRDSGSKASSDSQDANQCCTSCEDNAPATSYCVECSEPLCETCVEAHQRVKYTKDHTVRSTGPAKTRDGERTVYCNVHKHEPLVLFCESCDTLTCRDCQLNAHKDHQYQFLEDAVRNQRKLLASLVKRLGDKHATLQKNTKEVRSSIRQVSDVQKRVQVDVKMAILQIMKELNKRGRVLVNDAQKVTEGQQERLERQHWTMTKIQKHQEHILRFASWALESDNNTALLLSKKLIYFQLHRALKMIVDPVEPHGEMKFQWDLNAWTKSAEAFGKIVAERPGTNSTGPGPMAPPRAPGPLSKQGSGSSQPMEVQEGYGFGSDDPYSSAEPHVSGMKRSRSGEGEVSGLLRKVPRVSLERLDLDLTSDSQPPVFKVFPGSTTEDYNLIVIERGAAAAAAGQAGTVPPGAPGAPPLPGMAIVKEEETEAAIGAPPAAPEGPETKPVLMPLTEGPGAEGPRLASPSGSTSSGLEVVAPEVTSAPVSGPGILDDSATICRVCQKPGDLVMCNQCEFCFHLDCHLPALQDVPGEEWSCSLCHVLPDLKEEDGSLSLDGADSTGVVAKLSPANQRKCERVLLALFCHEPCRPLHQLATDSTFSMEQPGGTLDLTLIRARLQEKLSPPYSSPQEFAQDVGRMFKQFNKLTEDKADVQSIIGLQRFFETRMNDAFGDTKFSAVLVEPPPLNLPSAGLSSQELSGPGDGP
UniProt Q6PDQ2: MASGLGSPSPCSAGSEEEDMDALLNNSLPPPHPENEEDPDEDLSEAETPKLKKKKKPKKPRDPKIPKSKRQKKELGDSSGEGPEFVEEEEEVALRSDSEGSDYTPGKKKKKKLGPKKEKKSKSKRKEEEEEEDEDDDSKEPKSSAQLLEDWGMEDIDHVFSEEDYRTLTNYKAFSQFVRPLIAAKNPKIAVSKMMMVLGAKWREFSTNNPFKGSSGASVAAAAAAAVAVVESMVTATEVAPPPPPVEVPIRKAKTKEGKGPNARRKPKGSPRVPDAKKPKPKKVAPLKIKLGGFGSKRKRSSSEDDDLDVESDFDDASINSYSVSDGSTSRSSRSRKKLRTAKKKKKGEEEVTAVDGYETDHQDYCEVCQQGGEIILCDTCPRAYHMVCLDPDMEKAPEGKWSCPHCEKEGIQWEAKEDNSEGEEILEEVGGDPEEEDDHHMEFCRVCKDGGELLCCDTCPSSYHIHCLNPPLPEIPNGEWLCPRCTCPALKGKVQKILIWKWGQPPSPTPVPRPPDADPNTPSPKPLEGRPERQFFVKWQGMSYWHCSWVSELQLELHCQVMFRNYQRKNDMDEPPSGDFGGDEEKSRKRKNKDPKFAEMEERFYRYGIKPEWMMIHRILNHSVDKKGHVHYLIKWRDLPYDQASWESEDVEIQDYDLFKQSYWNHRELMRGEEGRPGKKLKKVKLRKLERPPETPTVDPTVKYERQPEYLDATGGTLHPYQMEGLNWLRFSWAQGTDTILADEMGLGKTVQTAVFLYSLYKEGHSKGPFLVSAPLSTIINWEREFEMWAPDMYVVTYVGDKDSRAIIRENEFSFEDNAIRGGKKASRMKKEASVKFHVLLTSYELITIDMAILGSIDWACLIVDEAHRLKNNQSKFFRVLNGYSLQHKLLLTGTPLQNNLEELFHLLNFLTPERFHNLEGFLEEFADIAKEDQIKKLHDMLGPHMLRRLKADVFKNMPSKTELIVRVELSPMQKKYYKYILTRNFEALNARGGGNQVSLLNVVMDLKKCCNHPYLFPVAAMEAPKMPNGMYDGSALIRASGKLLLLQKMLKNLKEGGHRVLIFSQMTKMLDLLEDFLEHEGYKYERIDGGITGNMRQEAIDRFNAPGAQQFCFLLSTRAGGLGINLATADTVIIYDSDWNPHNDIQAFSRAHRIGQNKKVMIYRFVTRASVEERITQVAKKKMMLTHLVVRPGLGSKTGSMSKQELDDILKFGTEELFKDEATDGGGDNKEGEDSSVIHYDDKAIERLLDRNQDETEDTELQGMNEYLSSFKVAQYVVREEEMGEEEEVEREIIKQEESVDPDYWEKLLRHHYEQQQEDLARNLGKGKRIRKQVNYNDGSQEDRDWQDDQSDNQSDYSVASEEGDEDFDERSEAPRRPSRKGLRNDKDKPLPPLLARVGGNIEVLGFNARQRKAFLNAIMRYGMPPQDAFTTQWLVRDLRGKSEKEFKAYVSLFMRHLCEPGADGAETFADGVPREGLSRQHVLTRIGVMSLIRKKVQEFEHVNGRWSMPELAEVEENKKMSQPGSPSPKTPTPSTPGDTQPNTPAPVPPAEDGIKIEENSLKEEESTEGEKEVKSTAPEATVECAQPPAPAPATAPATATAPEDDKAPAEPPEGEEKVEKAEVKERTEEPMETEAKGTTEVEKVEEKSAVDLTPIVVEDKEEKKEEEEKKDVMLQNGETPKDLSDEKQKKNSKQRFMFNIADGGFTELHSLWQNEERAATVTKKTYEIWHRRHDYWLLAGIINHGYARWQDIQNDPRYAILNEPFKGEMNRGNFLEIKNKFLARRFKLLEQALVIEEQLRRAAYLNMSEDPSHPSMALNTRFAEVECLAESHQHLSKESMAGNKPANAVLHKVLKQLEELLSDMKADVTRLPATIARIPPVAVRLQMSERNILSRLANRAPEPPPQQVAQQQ
UniProt P70288: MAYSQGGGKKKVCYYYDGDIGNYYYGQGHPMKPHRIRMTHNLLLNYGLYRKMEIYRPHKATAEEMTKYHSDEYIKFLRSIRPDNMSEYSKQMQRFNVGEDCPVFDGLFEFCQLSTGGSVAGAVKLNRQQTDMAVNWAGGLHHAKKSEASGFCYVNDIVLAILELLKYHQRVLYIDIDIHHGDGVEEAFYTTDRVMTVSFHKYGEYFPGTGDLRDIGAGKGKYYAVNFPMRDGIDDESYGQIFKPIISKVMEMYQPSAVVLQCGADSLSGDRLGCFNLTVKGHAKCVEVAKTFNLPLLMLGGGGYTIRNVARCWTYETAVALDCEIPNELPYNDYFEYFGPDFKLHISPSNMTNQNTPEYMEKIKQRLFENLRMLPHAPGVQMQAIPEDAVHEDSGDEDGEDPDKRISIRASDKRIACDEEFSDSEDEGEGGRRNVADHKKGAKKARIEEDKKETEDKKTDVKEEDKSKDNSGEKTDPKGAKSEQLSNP

How the values were obtained:
[1] = target: KAP1 (mouse (endogenous in C2C12)) (UniProt Q62318); assay: co-IP; C2C12 cells at 90% confluency lysed in CO-IP buffer (50 mM Tris-HCl, 150 mM NaCl, 1% Triton X-100, protease inhibitor); supernatant rotated with antibody and Protein A-agarose beads at 4 °C for 14 h; western blot
[2] = target: CHD4 (mouse (endogenous in C2C12)) (UniProt Q6PDQ2); assay: as above

| binding [1] | binding [2] | Substance |
| --- | --- | --- |
| binds |  | CHD4 (from UniProt Q6PDQ2 1-1915) |
|  | binds | HDAC2 (from UniProt P70288 1-488) |
